PMC9468603
These are yes or no findings as the source states them, for the method shown. Binding seen in cells or lysates may run through a third protein. Here binding means that the protein was enriched with, or labelled near, the bait; the list need not be complete.

The chains behind the UniProt entries cited, without tags or fusion partners.
UniProt Q7TPR4: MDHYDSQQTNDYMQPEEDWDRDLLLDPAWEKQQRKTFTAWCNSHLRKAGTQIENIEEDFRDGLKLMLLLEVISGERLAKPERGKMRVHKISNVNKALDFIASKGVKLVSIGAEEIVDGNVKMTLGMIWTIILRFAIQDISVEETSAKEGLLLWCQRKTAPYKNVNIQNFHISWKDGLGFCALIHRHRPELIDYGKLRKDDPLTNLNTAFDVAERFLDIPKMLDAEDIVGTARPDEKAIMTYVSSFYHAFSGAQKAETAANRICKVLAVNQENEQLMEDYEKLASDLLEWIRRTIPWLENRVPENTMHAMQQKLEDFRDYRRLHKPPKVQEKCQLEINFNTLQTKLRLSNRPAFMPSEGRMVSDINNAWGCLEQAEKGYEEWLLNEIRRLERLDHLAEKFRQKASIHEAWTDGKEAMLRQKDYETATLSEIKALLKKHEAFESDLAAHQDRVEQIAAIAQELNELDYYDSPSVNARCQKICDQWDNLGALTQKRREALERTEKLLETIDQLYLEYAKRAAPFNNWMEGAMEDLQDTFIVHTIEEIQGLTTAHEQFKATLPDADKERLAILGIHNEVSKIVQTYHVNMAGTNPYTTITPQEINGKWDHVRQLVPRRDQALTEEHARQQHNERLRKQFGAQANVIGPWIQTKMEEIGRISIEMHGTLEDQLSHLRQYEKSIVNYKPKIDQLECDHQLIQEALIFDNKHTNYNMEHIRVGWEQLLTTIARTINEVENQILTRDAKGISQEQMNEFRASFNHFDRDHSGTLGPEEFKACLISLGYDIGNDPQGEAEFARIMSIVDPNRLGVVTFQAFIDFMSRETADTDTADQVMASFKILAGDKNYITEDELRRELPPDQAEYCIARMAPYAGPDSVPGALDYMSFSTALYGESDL

Target: His-tagged Shp2 N-SH2 domain recombinant protein (UniProt Q06124)
Assay: affinity purification with mass spectrometry; FA fractions isolated from MEFs treated with or without FAK inhibitor 14 (15 μM, 90 min), harvested in 0.5% Triton-X100, 50 mM Tris-HCl pH 8.0, 150 mM NaCl, 0.1% DOC; incubated with 50 μg His-tagged N-SH2 for 20 min, Ni-beads 40 min at 4°C; SDS-PAGE, silver staining, band of about 100 kD identified by LC/MS/MS; only the target purified

binding | Substance
binds | α-actinin-1 (endogenous, mouse) (from UniProt Q7TPR4 1-892)
binds | α-actinin-4 (endogenous, mouse) (from UniProt P57780 1-912)
